Results reported in publication PMC6739334.

What was measured:
[1] = tested on: YBX1 (recombinant, Abcam ab187443); test: EMSA; conditions: 20 ug protein; EMSA: LightShift Chemiluminescent RNA EMSA kit, room temperature 20-30 min, buffer not stated; pull-down with linearized circAnks1a: 50 mM Tris-HCl, 150 mM NaCl; commercial protein; label: 3' biotin
[2] = tested on: YBX1 (recombinant, Abcam ab187443); test: competition with a labelled probe; conditions: unlabeled mutant fails to compete with labeled site-1, unlabeled wild type competes; EMSA: LightShift Chemiluminescent RNA EMSA kit, room temperature 20-30 min, buffer not stated; pull-down with linearized circAnks1a: 50 mM Tris-HCl, 150 mM NaCl; commercial protein; label: unlabeled competitor
[3] = tested on: Transportin-1 (recombinant, GeneTex GTX103003); test: EMSA; conditions: 20 ug protein; EMSA: LightShift Chemiluminescent RNA EMSA kit, room temperature 20-30 min, buffer not stated; pull-down with linearized circAnks1a: 50 mM Tris-HCl, 150 mM NaCl; commercial protein; label: 3' biotin

“UGGCUGCAGGAAUCGACGUCAACAUCAAGGACAACCGUGGCCUGACU [circAnks1a site-2 (YBX1 motif-2)]”: no binding [1].

“CCUAGGGAACGCCCGCCACCAGGUCGUUAGCCGCCGCCUGAUGAAGAG [circAnks1a site-1 mutant]”: no binding [2].

“CCUAGGGAACGCCCGCCACCUCCAGCAAAGCCGCCGCCUGAUGAAGAG [circAnks1a site-1 (YBX1 motif-1)]”: binds [1]; no binding [3].

For at least one entry, the source does not settle the construct or the ends of the probe. No signal at the amounts used counts as a negative.
